From patent US20230220057A1 (STAIDSON BEIJING BIOPHARMACEUTICALS, published 2023) come the findings set out here.

Sequences of proteins named here, by UniProt entry; tags and fusion partners are left off. A change or cut given only in a name is not applied to a line headed by its entry.
UniProt P01138: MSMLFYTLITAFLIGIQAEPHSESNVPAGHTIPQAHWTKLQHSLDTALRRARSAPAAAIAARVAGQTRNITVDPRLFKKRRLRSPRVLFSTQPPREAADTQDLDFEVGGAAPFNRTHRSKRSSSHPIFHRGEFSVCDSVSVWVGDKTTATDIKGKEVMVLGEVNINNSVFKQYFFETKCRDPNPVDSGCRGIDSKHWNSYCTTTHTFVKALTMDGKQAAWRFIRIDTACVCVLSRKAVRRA

The chains are these.
B1: Ab4 (antibody, human IgG1, V domains shown)
VH: EVQLVQSGAEVKKPGATVKISCKVSGYTFITYWISWVQQAPGKGLEWMGAIDPSDSDARYSPSFQGRVTITADTSTDTAYMELSSLRSEDTAVYYCAKSDPGYSGYSLLYGFDSWGQGTLVTVSS
VL: DVVMTQSPLSLPVTLGQPASISCRSSQSLVQRNGNTYLSWYQQRPGQSPRLLIYQVSNRYSGVPDRFSGSGSGTDFTLKISRVEAEDVGVYYCGQGAHLPLTFGQGTKVEIK
B2: Ab49 (antibody, human IgG1, V domains shown)
VH: EVQLVQSGAEVKKPGESLKISCKGSGYSFITYWISWVRQMPGKGLEWMGAIDPSDSDARYSPSFQGQVTISADKSISTAYLQWSSLKASDTAMYYCAKSDPGYSGYSLLYGFDSWGQGTLVTVSS
VL: B1 VL with V2I, S48P
B3: Ab59 (antibody, human IgG1, V domains shown)
VH: B2 VH with G24I
VL: B1 VL with V2I, S48P
B4: Ab44 (antibody, human IgG1, V domains shown)
VH: B2 VH
VL: B1 VL
B5: Ab56 (antibody, human IgG1, V domains shown)
VH: B2 VH with G24I
VL: B1 VL with Y41F, S48P
B6: Ab52 (antibody, human IgG1, V domains shown)
VH: B2 VH with G24I
VL: B1 VL with V2I, S7T, L11S, S48P, S72A
B7: Ab57 (antibody, human IgG1, V domains shown)
VH: B2 VH with G24I
VL: B1 VL with V2I, Y41F
B8: Ab36 (antibody, human IgG1, V domains shown)
VH: B1 VH with T74K
VL: B1 VL with Y41F, S48P
B9: Ab60 (antibody, human IgG1, V domains shown)
VH: B2 VH with G24I
VL: B1 VL with V2I, Y41F, S48P
B10: Ab53 (antibody, human IgG1, V domains shown)
VH: B2 VH with G24I
VL: B1 VL with Y41F
B11: Ab37 (antibody, human IgG1, V domains shown)
VH: B1 VH with T74K
VL: B1 VL with V2I, Y41F
B12: Ab61 (antibody, human IgG1, V domains shown)
VH: B1 VH
VL: B1 VL with G34A
B13: Ab47 (antibody, human IgG1, V domains shown)
VH: B2 VH
VL: B1 VL with V2I, Y41F
B14: Ab46 (antibody, human IgG1, V domains shown)
VH: B2 VH
VL: B1 VL with Y41F, S48P
B15: Ab45 (antibody, human IgG1, V domains shown)
VH: B2 VH
VL: B1 VL with S48P
B16: Ab50 (antibody, human IgG1, V domains shown)
VH: B2 VH
VL: B1 VL with V2I, Y41F, S48P
B17: Ab55 (antibody, human IgG1, V domains shown)
VH: B2 VH with G24I
VL: B1 VL with S48P
B18: Ab43 (antibody, human IgG1, V domains shown)
VH: B2 VH
VL: B1 VL with Y41F
B19: Ab51 (antibody, human IgG1, V domains shown)
VH: B2 VH with G24I
VL: B1 VL with V2I, S7T, L11S, Y41L, S48P, S72A
B20: Ab58 (antibody, human IgG1, V domains shown)
VH: B2 VH with G24I
VL: B1 VL with V2I
B21: Ab48 (antibody, human IgG1, V domains shown)
VH: B2 VH
VL: B1 VL with V2I
B22: Ab41 (antibody, human IgG1, V domains shown)
VH: B2 VH
VL: B1 VL with V2I, S7T, L11S, Y41L, S48P, S72A
B23: Ab54 (antibody, human IgG1, V domains shown)
VH: B2 VH with G24I
VL: B1 VL
B24: Ab42 (antibody, human IgG1, V domains shown)
VH: B2 VH
VL: B1 VL with V2I, S7T, L11S, S48P, S72A
B25: Ab16 (antibody, human IgG1, V domains shown)
VH: B1 VH with T28S
VL: B1 VL with Y41F, S48P

Where a chain is given by its changes, count along the chain named. No constants are given. Whether binding was seen depends on the method and setting. Some binding calls cover weakened binding; strength is not graded here.

This assay deals with recombinantly produced human-NGF (human, UniProt P01138 122-241, limits assumed). In words: NGF binding ELISA.
Take B1: the binding entry is recorded as “binds”. The value for B2 was “binds”; that for B3 was “binds”; that for B4 was “binds”. The result for B5 reads “binds”; that for B6, “binds”; that for B7, “binds”.

As to B8, the binding entry is recorded as “binds”. The value for B9 was “binds”.

Consider B10, for which the binding entry was “binds”.

As to B11, the binding entry is given as “binds”. The value for B12 was “binds”; that for B13 was “binds”; that for B14 was “binds”.

As to B15, the binding result was “binds”. The value for B16 was “binds”; that for B17 was “binds”; that for B18 was “binds”. The value for B19 was “binds”. The result for B20 reads “binds”.

Take B21: the binding result is given as “binds”. The value for B22 was “binds”; that for B23 was “binds”. The result for B24 reads “binds”; that for B25, “binds”.
